# Results deposited as PubChem BioAssay AID1259254 (NCATS, 2017).
# Aim: 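Finding genes that stop cells copying their DNA twice in one cycle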 (primary screen)
# System: human HCT116 colorectal cancer cells
# Reagents: single siRNA against human genes
# Time to read-out: 3 days
# Detection: 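Imaged Hoechst DNA stain sorts each cell into a cycle phase by DNA amount; per plate, G2 fraction set to 0% for non-targeting and 100% for GMNN siRNA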
# Scale: G2 robust z-score and G2 cells, % of GMNN control: higher = more G2 cells, more excess DNA replication; raw share of cells in G2: higher = larger share of cells with G2 DNA content
# Call rule: 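Active siRNAs have a G2 robust z of 5 or more median absolute deviations over the median, which in these data means about 38% or higher of GMNN control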
# Shown is an unselected part of about 59,000 reagents. Over the whole deposit, about 1,550 (2.6%) are marked active. 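G2 share is only a proxy for re-replication; each gene was hit by three separate siRNAs, and active genes were retested.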 The raw values are shown without normalisation. The numbers tell different reagents against one gene apart. Reagent sequences are not shown. Not stated in the record: the amount of reagent.
Target gene,siRNA no.,G2 robust z-score,"G2 cells, % of GMNN control",raw share of cells in G2 (%),call
SNX19P3,1,-0.393,0.204,3.85,inactive
SNX19P3,2,3.32,26.3,13,inactive
SNX19P3,3,-0.0718,2.46,3.83,inactive
SNX19P3,4,0.687,7.8,6.72,inactive
SNX19P3,5,0.157,4.07,4.74,inactive
SNX19P3,6,0.933,9.53,6.07,inactive
SNX19P3,7,-0.904,-3.39,2.5,inactive
SNX19P3,8,-0.704,-1.99,2.49,inactive
SNX19P3,9,0.377,5.62,4.83,inactive
POLR1E,1,2.46,20.3,13.4,inactive
POLR1E,2,0.116,3.78,6.3,inactive
POLR1E,3,1.32,12.2,5.93,inactive
MAGOH,1,1.57,14,8.41,inactive
MAGOH,2,0.701,7.9,8.33,inactive
MAGOH,3,0.143,3.97,5.79,inactive
CYP11B2,1,0.494,6.44,7.35,inactive
CYP11B2,2,-1.04,-4.38,3.4,inactive
CYP11B2,3,-0.194,1.61,4.65,inactive
ZNF773,1,-1.42,-7.04,0.67,inactive
ZNF773,2,-0.759,-2.37,2.34,inactive
ZNF773,3,0.0416,3.26,4.67,inactive
WDR90,1,-0.653,-1.63,3.02,inactive
WDR90,2,0.249,4.72,4.54,inactive
WDR90,3,-0.733,-2.19,2.07,inactive
LZIC,1,5.48,41.5,17.9,active
LZIC,2,1.06,10.4,6.54,inactive
LZIC,3,-0.423,-0.00575,2.4,inactive
SLITRK2,1,1.74,15.2,11.8,inactive
SLITRK2,2,-0.663,-1.7,4.16,inactive
SLITRK2,3,1.58,14.1,9.29,inactive
USP2,1,0.956,9.69,8.94,inactive
USP2,2,-0.596,-1.22,4.47,inactive
USP2,3,0.0517,3.33,5.15,inactive
PTPN21,1,0.677,7.73,7.31,inactive
PTPN21,2,-0.446,-0.171,4.25,inactive
PTPN21,3,-0.553,-0.92,3.22,inactive
GPR55,1,1.16,11.1,9.83,inactive
GPR55,2,0.364,5.53,6.45,inactive
GPR55,3,0.898,9.28,6.12,inactive
PWP2,1,0.843,8.9,8.76,inactive
PWP2,2,-0.62,-1.39,3.67,inactive
PWP2,3,1.71,15,8.77,inactive
CD74,1,0.43,5.99,5.84,inactive
CD74,2,2.09,17.6,13.1,inactive
CD74,3,-0.273,1.04,3.49,inactive
YIPF2,1,-0.38,0.296,4.71,inactive
YIPF2,2,-0.0639,2.52,5.74,inactive
YIPF2,3,3.28,26,9.57,inactive
SERPINA2,1,2.77,22.5,12.5,inactive
SERPINA2,2,0.942,9.6,8.71,inactive
SERPINA2,3,2.56,21,15,inactive
ASMTL,1,-0.93,-3.57,4.01,inactive
ASMTL,2,-0.856,-3.05,3.15,inactive
ASMTL,3,0.742,8.19,7.64,inactive
MBD5,1,-0.315,0.75,4.81,inactive
MBD5,2,-0.147,1.93,4.94,inactive
MBD5,3,-0.178,1.71,3.68,inactive
MAGED1,1,-1.49,-7.55,2.35,inactive
MAGED1,2,0.312,5.16,6.85,inactive
MAGED1,3,0.24,4.65,4.79,inactive
CERS4,1,-0.0372,2.71,5.76,inactive
CERS4,2,-0.775,-2.49,3.5,inactive
CERS4,3,1.81,15.7,6.84,inactive
RHOT2,1,0.46,6.2,7.63,inactive
RHOT2,2,-1.2,-5.5,2.4,inactive
RHOT2,3,-0.741,-2.25,4.63,inactive
TXNDC9,1,-1.06,-4.49,4.71,inactive
TXNDC9,2,1.03,10.2,7.15,inactive
TXNDC9,3,2.52,20.7,14.7,inactive

Already shown: entries from further up.
Target gene,siRNA no.,G2 robust z-score,"G2 cells, % of GMNN control",raw share of cells in G2 (%),call
MAGED1,1,-1.49,-7.55,2.35,inactive
MAGED1,2,0.312,5.16,6.85,inactive
MAGED1,3,0.24,4.65,4.79,inactive
CERS4,1,-0.0372,2.71,5.76,inactive
CERS4,2,-0.775,-2.49,3.5,inactive
CERS4,3,1.81,15.7,6.84,inactive
RHOT2,1,0.46,6.2,7.63,inactive
RHOT2,2,-1.2,-5.5,2.4,inactive
RHOT2,3,-0.741,-2.25,4.63,inactive
TXNDC9,1,-1.06,-4.49,4.71,inactive
